Measurements reported in PubChem BioAssay AID743454 (Peter MacCallum Cancer Centre, 2014).

- Purpose: 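Knock-downs lowering viability or raising caspase 3/7 activity in vorinostat-treated resistant cells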 (primary screen)
- Cells: human HCT116-VR colon cancer cells, selected for vorinostat resistance
- Reagents: siRNA pool against human genes, 40 nM siRNA pool
- Time to read-out: vorinostat for 24 h, read-out about 72 h after transfection
- Challenge: vorinostat at 2.5 µM final
- Measured: 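Cell viability by CellTiter-Fluor and caspase 3/7 activity by luminescence, each scaled to mock wells per plate, duplicates averaged, then robust z-scored over all plates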
- Direction: viability robust z-score: higher = more viable cells than screen typical; caspase robust z-score: higher = more caspase 3/7 activity than screen typical
- Rule for the call: 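Hits are knock-downs in viability class RV1/RV2 or caspase class CA1/CA2, excluding ones that killed cells in the no-drug cell-count arm; hits then retested with single siRNAs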
Shown is a random part of about 18,000 reagents. 450 of them (2.5%) count as active. 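Single biological run; no consistent viability z cut-off exists, so the class columns, not z-scores, define the calls.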

CTBS (chitobiase): viability hit class = no change; caspase hit class = no change; viability robust z-score = -1.4; caspase robust z-score = 0.02; call = inactive
ADM (adrenomedullin): viability hit class = no change; caspase hit class = no change; viability robust z-score = -1.07; caspase robust z-score = 0.16; call = inactive
PRSS42P (serine protease 42, pseudogene): viability hit class = no change; caspase hit class = no change; viability robust z-score = 0.45; caspase robust z-score = -0.52; call = inactive
DHTKD1 (dehydrogenase E1 and transketolase domain containing 1): viability hit class = no change; caspase hit class = no change; viability robust z-score = -0.95; caspase robust z-score = -0.9; call = inactive
ZNF169 (zinc finger protein 169): viability hit class = no change; caspase hit class = no change; viability robust z-score = 0.78; caspase robust z-score = -0.8; call = inactive
PSMD4 (proteasome 26S subunit ubiquitin receptor, non-ATPase 4): viability hit class = no change; caspase hit class = CA2 (caspase activation); viability robust z-score = 0.05; caspase robust z-score = 8.03; call = active
B3GNT9: viability hit class = no change; caspase hit class = no change; viability robust z-score = 0.22; caspase robust z-score = 1.53; call = inactive
FAM186B (family with sequence similarity 186 member B): viability hit class = no change; caspase hit class = no change; viability robust z-score = 1.22; caspase robust z-score = 1.06; call = inactive

Look-ups from above:
Value of DHTKD1 (dehydrogenase E1 and transketolase domain containing 1) under “caspase robust z-score”: -0.9
CTBS (chitobiase), viability robust z-score = -1.4

The listing continues.
MID2 (midline 2): viability hit class = no change; caspase hit class = no change; viability robust z-score = -0.55; caspase robust z-score = -0.9; call = inactive
GPSM1 (G protein signaling modulator 1): viability hit class = no change; caspase hit class = no change; viability robust z-score = -0.62; caspase robust z-score = 0.37; call = inactive
GALNT15 (polypeptide N-acetylgalactosaminyltransferase 15): viability hit class = no change; caspase hit class = no change; viability robust z-score = -0.32; caspase robust z-score = -1; call = inactive
ZDHHC24 (zDHHC palmitoyltransferase 24): viability hit class = no change; caspase hit class = no change; viability robust z-score = 0.28; caspase robust z-score = -0.42; call = inactive
